Measurements: EP3225590A1 (Université de Strasbourg, priority 2016, dated 2017)
For part of these data: Not every detail of the peptide structures is certain; ends, links or a residue may be inferred. For part of these data: For at least one compound, name, drawing or mass did not settle the structure. Residues, ends and D or L forms follow the SMILES beside them.

Key:
Settings in all cases: 10 mM HEPES buffer (pH 7.3), ANR 250 µg/mL; >> = less than 10% change in emission intensity at >50 molar excess of analyte; error less than ±20%
ANR-L1 [1] = assay: Fluorescence titration of ANR-L1 suspension with analyte, 1:1 single-site binding fit
ANR-Y1 [2] = assay: Fluorescence titration of ANR-Y1 suspension with analyte, 1:1 single-site binding fit
ANR-L1 [3] = assay: Fluorescence titration of ANR-L1 suspension with analyte, 1:1 single-site binding fit; remark: listed apart in the source
ANR-Y1 [4] = assay: Fluorescence titration of ANR-Y1 suspension with analyte, 1:1 single-site binding fit; remark: listed apart in the source

Kd (ANR-L1 [1]) [mM] | Kd (ANR-Y1 [2]) [mM] | Kd (ANR-L1 [3]) [mM] | Kd (ANR-Y1 [4]) [mM] | SMILES
> 1 | > 1 |  |  | N[C@@H](CC(=O)O)C(=O)O [aspartate]
> 1 | > 1 |  |  | C[C@]12CC[C@@H]3c4ccc(O)cc4CC[C@H]3[C@@H]1CC[C@@H]2O [estradiol]
 |  | > 1 | > 1 | N[C@@H](Cc1c[nH]c2ccccc12)C(=O)NCC(=O)O [TrpGly] (H-Trp-Gly-OH)
